Experimental findings from PMC10007777, “Glycyrrhizic acid inhibits myeloid differentiation of hematopoietic stem cells by binding S100 calcium binding protein A8 to improve cognition in aged mice” (Immunity & Ageing : I & A, 2023) are described below.

The target in this assay is T1, S100 calcium-binding protein 8 (S100A8) protein (UniProt P27005).
T1 sequence: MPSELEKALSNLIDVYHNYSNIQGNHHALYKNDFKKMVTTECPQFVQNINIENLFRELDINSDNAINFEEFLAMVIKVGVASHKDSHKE
The experiment in a line: SPR; S100A8 immobilised on a COOH chip; S100A9 at 800, 400, 200, 100 and 50 μM as printed in the legend; also run with GA (glycyrrhizic acid) bound first; both purified. On the technique in general: SPR reads the build-up and loss of mass on a sensor chip optically.

Results are given in words; binding and its absence hold for the method and conditions named. Some entries that bind do so weakly or less than the wild type.

B1: S100A9 (protein, UniProt P31725 1-113)
chain: MANKAPSQMERSITTIIDTFHQYSRKEGHPDTLSKKEFRQMVEAQLATFMKKEKRNEALINDIMEDLDTNQDNQLSFEECMMLMAKLIFACHEKLHENNPRGHGHSHGKGCGK
B1: the binding result is listed as “binds”.
